Test system: colon cancer cell lines (RKO, Co115, HCT-116, SW48, LoVo)
Assay: Cell viability (MTT assay) of colon cancer cell lines
Assay type: cell-based, human
Conditions: HDAC2-deficient RKO cells, 24 h with 5 mM SAHA
Protocol: Cells were treated for 48 h with different concentrations of TSA (0-1000 nM). Experiments were performed in triplicate.
FIG. 5. […] Experiments were performed in triplicate.
Human colorectal and endometrial cancer cell lines were obtained from the American Type Culture Collection. HDAC inhibition treatment was developed adding 0.25 μM trichostatin A, 10 mM sodium valproate or 10 mM sodium butyrate to the culture medium for 24 hours. We obtained DNA samples from 228 human primary malignancies corresponding to colon tumors of HPNCC patients (n=47) and sporadic MSI+colon (n=127), MSI-colon (n=40), gastric (n=38) and endometrial carcinomas (n=16), as well as normal colon tissue (n=6), at the time of clinically indicated surgical procedures. Normal lymphocytes from healthy donors (n=50) was also used. DNA was extracted using standard protocols.
Cell viability was determined as previously described5. Aliquots of 1.5×10^4 cells were plated in 96-well microdilution plates. Following overnight cell adherence, experimental media containing the drugs or control media was added to appropriate wells. After 48 hours, the media was replaced by drug-free fresh media (100 μl/well) containing MTT (50 μg). […] Absorbance at 570 nm was determined on an automatized microtiter plate reader.

O=C(CCCCCCC(=O)Nc1ccccc1)NO [SAHA, suberoylanilide hydroxamic acid]
cell growth inhibition (cell viability, MTT assay): enhanced resistance
cell growth inhibition (cell viability, MTT assay) (listed as suberoylanilide hydroxamic acid (SAHA)): unable to efficiently inhibit cell growth

— patent US20090275633A1, “Novel Tumour Suppressor” (ONCOMETHYLOME SCIENCES SA, priority 2006, published 2009)
